# ± gives the standard deviation of the averaged measurements. Only a part is listed here, and it is no random draw.
# Experiments:
# Test in all cases: NP40-soluble protein abundance relative to vehicle (solubility fold change) (ratio); higher = more soluble protein in presence of AMP-PNP
# [1] = molecular target: T1, B7WPL9 and related entries (UniProt Q6PFW1)
# T1 sequence (whole entry): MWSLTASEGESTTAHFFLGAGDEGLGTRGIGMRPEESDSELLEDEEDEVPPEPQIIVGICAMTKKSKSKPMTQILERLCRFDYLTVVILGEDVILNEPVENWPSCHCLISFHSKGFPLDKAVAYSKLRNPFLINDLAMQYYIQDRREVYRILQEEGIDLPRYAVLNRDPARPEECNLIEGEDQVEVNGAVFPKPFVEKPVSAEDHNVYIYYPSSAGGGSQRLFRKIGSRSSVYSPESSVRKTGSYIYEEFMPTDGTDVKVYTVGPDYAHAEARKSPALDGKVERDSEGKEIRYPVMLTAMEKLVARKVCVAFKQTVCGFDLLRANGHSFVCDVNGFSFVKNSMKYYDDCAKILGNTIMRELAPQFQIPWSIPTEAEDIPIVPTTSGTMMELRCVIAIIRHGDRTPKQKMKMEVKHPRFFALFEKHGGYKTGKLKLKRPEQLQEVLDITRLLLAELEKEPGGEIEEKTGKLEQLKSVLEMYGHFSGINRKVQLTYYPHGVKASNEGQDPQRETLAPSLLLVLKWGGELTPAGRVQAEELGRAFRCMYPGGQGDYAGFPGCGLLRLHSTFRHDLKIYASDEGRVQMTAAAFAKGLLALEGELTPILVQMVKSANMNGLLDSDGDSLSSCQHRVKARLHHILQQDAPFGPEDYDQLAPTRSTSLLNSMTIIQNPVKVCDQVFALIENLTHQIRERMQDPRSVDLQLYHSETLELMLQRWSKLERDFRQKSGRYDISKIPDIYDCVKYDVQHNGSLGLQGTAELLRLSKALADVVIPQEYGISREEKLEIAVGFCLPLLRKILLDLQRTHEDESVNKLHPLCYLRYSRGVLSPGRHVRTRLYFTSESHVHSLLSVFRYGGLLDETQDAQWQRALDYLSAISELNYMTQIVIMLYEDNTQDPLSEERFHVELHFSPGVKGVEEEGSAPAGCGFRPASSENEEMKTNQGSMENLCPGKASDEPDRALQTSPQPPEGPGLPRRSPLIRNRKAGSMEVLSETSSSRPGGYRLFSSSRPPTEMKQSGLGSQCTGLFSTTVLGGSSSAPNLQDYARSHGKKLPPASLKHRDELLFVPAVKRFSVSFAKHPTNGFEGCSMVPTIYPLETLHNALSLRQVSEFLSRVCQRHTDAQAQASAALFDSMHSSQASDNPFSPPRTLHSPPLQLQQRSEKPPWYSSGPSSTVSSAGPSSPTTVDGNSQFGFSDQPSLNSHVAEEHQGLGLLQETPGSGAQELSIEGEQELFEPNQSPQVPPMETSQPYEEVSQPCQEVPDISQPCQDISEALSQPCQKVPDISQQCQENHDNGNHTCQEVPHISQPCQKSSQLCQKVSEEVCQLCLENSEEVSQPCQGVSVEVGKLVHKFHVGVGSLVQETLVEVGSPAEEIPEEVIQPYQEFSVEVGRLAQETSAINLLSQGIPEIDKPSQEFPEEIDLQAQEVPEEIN
# Method in brief: (§1)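 Eight concentrations, 0.1 to 10 mM, were tested on Jurkat crude lysate for 10 min at room temperature and then 3 min at 37 °C, in three independent experiments. The lysate was solubilised with 0.8% NP40 and benzonase, ultracentrifuged, and the supernatant TMT-labelled for LC-MS/MS. Each value is the fold change against the detergent-processed vehicle in its own replicate, from vsn-normalised intensities.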
# [2] = molecular target: T2, C9J494 and related entries (UniProt Q9H000)
# T2 sequence (whole entry): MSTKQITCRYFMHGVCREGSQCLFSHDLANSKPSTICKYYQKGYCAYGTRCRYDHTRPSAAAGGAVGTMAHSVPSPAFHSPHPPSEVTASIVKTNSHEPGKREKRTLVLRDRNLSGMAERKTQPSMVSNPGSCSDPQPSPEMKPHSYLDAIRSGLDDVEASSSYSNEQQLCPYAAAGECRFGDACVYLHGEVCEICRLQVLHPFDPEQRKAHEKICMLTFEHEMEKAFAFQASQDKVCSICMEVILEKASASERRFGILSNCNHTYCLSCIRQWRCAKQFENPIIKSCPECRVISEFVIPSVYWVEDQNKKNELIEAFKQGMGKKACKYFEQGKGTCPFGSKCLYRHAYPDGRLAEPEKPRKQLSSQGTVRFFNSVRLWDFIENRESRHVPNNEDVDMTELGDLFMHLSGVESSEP
# Method in brief: as §1
# [3] = molecular target: T3, C9JA69 and related entries (UniProt Q8WY36)
# T3 sequence (whole entry): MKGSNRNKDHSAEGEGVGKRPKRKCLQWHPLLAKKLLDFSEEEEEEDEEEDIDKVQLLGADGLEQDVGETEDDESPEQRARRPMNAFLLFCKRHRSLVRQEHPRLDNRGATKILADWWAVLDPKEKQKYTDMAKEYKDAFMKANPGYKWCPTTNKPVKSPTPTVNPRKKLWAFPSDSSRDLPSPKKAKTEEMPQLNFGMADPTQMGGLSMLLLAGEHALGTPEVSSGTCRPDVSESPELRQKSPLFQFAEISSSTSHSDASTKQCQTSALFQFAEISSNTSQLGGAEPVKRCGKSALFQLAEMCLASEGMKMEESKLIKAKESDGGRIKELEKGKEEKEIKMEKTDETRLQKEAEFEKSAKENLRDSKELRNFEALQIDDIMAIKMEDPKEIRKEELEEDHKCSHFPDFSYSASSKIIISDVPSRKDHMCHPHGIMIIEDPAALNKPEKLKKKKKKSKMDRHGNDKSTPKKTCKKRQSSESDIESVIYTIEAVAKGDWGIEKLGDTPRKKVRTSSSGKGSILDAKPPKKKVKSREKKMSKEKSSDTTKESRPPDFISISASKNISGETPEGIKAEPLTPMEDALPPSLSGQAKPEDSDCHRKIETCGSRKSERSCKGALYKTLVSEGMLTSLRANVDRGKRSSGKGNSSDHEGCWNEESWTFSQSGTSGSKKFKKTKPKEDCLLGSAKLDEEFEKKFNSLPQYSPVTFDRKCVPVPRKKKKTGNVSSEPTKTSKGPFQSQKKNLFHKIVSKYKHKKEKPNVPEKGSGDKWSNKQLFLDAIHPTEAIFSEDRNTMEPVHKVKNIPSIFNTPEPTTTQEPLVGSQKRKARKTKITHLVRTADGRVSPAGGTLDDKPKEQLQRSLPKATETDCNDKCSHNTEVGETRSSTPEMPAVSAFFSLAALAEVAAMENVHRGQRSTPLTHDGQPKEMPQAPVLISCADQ
# Method in brief: as §1
# [4] = molecular target: T4, C9JAX1 and related entries (UniProt Q16595)
# T4 sequence (whole entry): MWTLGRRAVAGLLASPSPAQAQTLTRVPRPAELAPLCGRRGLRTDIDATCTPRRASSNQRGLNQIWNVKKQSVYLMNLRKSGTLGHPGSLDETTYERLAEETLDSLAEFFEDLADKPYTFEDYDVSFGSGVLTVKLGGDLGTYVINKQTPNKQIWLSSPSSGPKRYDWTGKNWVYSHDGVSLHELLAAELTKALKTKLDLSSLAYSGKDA
# Method in brief: as §1
# [5] = molecular target: T5, C9JI46 and related entries (UniProt Q8N3X6); details: concentration: 1mM
# T5 sequence (whole entry): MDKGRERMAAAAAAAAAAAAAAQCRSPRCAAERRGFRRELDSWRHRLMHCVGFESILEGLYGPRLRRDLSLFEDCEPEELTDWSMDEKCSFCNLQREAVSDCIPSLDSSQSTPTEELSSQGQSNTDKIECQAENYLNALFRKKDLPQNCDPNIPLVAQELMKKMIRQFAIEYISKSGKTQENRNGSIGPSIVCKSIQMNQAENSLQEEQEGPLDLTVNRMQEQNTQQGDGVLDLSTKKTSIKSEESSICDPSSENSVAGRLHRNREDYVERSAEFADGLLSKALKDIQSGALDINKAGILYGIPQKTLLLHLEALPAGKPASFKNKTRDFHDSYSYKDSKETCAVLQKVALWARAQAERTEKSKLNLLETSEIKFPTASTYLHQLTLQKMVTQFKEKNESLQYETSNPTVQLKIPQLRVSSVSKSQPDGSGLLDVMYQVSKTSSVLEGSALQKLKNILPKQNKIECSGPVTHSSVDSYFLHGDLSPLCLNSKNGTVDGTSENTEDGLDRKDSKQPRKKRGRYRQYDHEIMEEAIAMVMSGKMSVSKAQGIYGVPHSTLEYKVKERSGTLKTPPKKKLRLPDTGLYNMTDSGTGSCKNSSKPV
# Method in brief: as §1
smiles,measurement,setting,value
Nc1ncnc2c1ncn2[C@@H]1O[C@H](COP(=O)(O)OP(=O)(O)NP(=O)(O)O)[C@@H](O)[C@H]1O [adenylyl imidodiphosphate],NP40-soluble protein abundance,[1]; concentration: 6mM,0.997 ± 0.046
same,NP40-soluble protein abundance,[1]; concentration: 8mM,0.982 ± 0.02
same,NP40-soluble protein abundance,[1]; concentration: 10mM,1.01 ± 0.041
same,NP40-soluble protein abundance,[2]; concentration: 1mM,1.01 ± 0.03
same,NP40-soluble protein abundance,[2]; concentration: 2mM,1.02 ± 0.026
same,NP40-soluble protein abundance,[2]; concentration: 4mM,1.04 ± 0.017
same,NP40-soluble protein abundance,[2]; concentration: 6mM,1.03 ± 0.037
same,NP40-soluble protein abundance,[2]; concentration: 8mM,1.05 ± 0.011
same,NP40-soluble protein abundance,[2]; concentration: 10mM,1.051 ± 0.0097
same,NP40-soluble protein abundance,[3]; concentration: 1mM,1.03 ± 0.046
same,NP40-soluble protein abundance,[3]; concentration: 2mM,1.06 ± 0.02
same,NP40-soluble protein abundance,[3]; concentration: 4mM,1 ± 0.018
same,NP40-soluble protein abundance,[3]; concentration: 6mM,1.02 ± 0.013
same,NP40-soluble protein abundance,[3]; concentration: 8mM,0.993 ± 0.039
same,NP40-soluble protein abundance,[3]; concentration: 10mM,1.03 ± 0.044
same,NP40-soluble protein abundance,[4]; concentration: 1mM,0.937 ± 0.044
same,NP40-soluble protein abundance,[4]; concentration: 2mM,1.06 ± 0.079
same,NP40-soluble protein abundance,[4]; concentration: 4mM,0.9515 ± 0.0091
same,NP40-soluble protein abundance,[4]; concentration: 6mM,0.995 ± 0.06
same,NP40-soluble protein abundance,[4]; concentration: 8mM,0.989 ± 0.05
same,NP40-soluble protein abundance,[4]; concentration: 10mM,0.963 ± 0.03
same,NP40-soluble protein abundance,[5],0.985 ± 0.021

# At a glance, part of the list above.
smiles,measurement,setting,value
Nc1ncnc2c1ncn2[C@@H]1O[C@H](COP(=O)(O)OP(=O)(O)NP(=O)(O)O)[C@@H](O)[C@H]1O [adenylyl imidodiphosphate],NP40-soluble protein abundance,[2]; concentration: 6mM,1.03 ± 0.037
same,NP40-soluble protein abundance,[2]; concentration: 8mM,1.05 ± 0.011

# Source: the supplement of paper PMC6411743
